Protein sequences, listed by entry. Tags and fused reporters are not part of them. Lines headed by an entry give the natural chain unless they say otherwise; changes in a name come on top.
UniProt P39938: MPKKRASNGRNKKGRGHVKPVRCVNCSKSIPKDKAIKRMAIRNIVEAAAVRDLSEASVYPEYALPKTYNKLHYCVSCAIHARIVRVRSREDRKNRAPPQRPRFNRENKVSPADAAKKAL

In PMC5148605, “Prefabrication of a ribosomal protein subcomplex essential for eukaryotic ribosome formation” (eLife, 2016):

Tests used:
GST-Pse1 (S. cerevisiae) [1] = molecular target: T1, GST-Pse1 (S. cerevisiae) (UniProt P32337); experiment: pull-down; GST-Pse1 immobilised on Glutathione Sepharose, incubated with buffer or eS26 alone; washed; Coomassie and Western
T1 sequence: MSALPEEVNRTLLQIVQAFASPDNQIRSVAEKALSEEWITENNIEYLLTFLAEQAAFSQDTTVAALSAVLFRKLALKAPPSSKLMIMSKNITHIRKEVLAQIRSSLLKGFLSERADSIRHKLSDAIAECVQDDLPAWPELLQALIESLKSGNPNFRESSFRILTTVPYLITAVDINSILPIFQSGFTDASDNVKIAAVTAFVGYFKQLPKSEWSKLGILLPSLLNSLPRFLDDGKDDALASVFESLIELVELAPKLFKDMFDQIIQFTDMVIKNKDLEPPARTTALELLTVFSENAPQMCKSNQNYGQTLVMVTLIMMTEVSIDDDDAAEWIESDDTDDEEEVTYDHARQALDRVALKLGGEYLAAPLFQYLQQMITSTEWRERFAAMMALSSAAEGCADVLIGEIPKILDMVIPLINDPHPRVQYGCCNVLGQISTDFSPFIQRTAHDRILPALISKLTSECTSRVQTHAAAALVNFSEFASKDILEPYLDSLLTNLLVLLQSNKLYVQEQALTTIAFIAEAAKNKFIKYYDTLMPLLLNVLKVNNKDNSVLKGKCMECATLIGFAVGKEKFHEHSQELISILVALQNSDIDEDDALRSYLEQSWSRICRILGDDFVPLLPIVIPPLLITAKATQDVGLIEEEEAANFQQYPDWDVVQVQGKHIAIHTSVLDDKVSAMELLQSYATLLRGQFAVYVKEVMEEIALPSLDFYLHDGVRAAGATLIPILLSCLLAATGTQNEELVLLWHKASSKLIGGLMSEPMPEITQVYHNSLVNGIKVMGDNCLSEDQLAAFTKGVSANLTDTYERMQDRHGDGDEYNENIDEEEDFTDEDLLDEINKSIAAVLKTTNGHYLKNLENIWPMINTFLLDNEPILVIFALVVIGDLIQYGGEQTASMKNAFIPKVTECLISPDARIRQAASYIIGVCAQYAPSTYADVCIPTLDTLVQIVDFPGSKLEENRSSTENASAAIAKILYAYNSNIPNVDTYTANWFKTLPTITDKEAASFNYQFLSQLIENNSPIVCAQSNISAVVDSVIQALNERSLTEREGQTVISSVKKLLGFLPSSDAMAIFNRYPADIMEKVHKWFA

GST-Pse1 (S. cerevisiae) [2] = molecular target: T1, GST-Pse1 (S. cerevisiae); experiment: pull-down; pre-immobilised GST-Pse1:eS26FLAG complexes incubated with buffer alone or 1.5 µM His6-Fap7:uS11 and/or 1.5 µM RanGTP at 4°C; samples at 0 and 10 min (Fap7:uS11 for 1 hr in Figure 7A); Coomassie and Western; both purified
GST-Fap7 (S. cerevisiae) = molecular target: T2, GST-Fap7 (S. cerevisiae) (UniProt Q12055); experiment: pull-down; GST-tagged Fap7 and uS11 baits immobilised on Glutathione Sepharose in binding buffer (20 mM Hepes pH 7.5, 250 mM NaCl, 5 mM MgCl2, 0.2% Tween-20), incubated with E. coli lysate containing recombinant eS26FLAG or Tsr2:eS26; washed thrice; SDS-PAGE, Coomassie and Western; only the target purified
T2 sequence: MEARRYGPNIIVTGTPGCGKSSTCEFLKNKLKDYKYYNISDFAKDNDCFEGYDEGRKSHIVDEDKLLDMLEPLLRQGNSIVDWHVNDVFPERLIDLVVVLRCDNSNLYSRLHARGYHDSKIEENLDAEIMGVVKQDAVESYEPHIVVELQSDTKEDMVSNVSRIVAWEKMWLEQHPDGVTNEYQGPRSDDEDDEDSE

Enp1-TAP (S. cerevisiae) [3] = molecular target: T3, Enp1-TAP (S. cerevisiae) (UniProt P38333); experiment: tandem affinity purification (TAP) with Western analysis; Enp1-TAP isolated from Tsr2-depleted cells; calmodulin eluates
T3 sequence: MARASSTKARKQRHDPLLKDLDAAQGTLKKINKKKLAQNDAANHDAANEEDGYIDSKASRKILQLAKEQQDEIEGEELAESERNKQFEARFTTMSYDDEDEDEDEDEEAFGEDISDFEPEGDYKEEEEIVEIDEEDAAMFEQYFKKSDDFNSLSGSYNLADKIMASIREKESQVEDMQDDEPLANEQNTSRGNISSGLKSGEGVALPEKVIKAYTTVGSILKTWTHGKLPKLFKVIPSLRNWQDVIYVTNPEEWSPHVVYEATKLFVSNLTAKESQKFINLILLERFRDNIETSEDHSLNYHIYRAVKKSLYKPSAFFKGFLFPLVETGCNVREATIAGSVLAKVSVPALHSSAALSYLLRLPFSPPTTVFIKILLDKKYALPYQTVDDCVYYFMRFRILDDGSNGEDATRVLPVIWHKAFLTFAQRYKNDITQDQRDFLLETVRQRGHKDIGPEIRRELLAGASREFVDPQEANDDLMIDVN

Enp1-TAP (S. cerevisiae) [4] = molecular target: T3, Enp1-TAP (S. cerevisiae); experiment: tandem affinity purification (TAP) with Western analysis; Enp1-TAP isolated from Fap7-depleted cells; calmodulin eluates
Enp1-TAP (S. cerevisiae) [5] = molecular target: T3, Enp1-TAP (S. cerevisiae); experiment: tandem affinity purification (TAP) with Western analysis; TAP-tagged baits isolated from yeast cells (wild type; also Fap7- or Tsr2-depleted cells and Tsr2-depleted cells co-overexpressing FAP7 and uS11); calmodulin eluates; pre-ribosomal particles

Row | Substance | binding (GST-Pse1 (S. cerevisiae) [1]) | binding (GST-Pse1 (S. cerevisiae) [2]) | binding (GST-Fap7 (S. cerevisiae)) | binding (Enp1-TAP (S. cerevisiae) [3]) | binding (Enp1-TAP (S. cerevisiae) [4]) | binding (Enp1-TAP (S. cerevisiae) [5])
1 | eS26FLAG (from UniProt P39938) | binds | binds | no binding |  |  | 
2 | Tsr2:eS26 complex (S. cerevisiae) |  |  | no binding |  |  | 
3 | eS26 (endogenous) (from UniProt P39938) |  |  |  | binds weakly | binds weakly | binds

No constants are given. Whether binding was seen depends on the method and setting. For some of these results: Binding calls can cover weak binding; strength is not graded here. For some of these results: Where a sequence is shown, tags or fusion partners need not be part of it. For some of these results: In cells and extracts the contact can be indirect.
